Source: the supplement of paper PMC8256030
Where “and” joins values, the source holds several entries; their conditions need not be identical. Equal entries are not always repeated. The list shows a part of the results. This data set is noisy: repeats of one test often differ as much as different tests do.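 HEK293T cells were given each compound shortly before transfection with a reporter in which red mCherry is followed by the SARS-CoV-2 frameshift element and then GFP in the −1 frame, so GFP appears only after frameshifting.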

test system: SARS-CoV-2 -1 PRF reporter mCherry-FSE-GFP(-1); test: percent effect, decrease of GFP/mCherry ratio (-1 PRF reporter) relative to controls; higher = stronger frameshift inhibition; details: 10 µM; 24 h; HEK293T

SMILES | percent effect
CC(=O)N[C@H](Cc1ccc2ccccc2c1)C(=O)N[C@H](Cc1ccc(Cl)cc1)C(=O)N[C@H](Cc1cccnc1)C(=O)N[C@@H](CO)C(=O)N[C@@H](Cc1ccc(O)cc1)C(=O)N[C@H](CCCNC(N)=O)C(=O)N[C@@H](CC(C)C)C(=O)N[C@@H](CCCNC(=N)N)C(=O)N1CCC[C@H]1C(=O)N[C@H](C)C(N)=O [Cetrotide] | -7.62%
C[C@H](N[C@@H](CCc1ccccc1)C(=O)O)C(=O)N1C(=O)N(C)C[C@H]1C(=O)O [imidaprilat] | -7.84%
COc1cc(OC)cc(OCCO)c1 [floverine] | -0.944%
CNS(=O)(=O)Cc1ccc2[nH]cc(CCN(C)C)c2c1 [Sumatriptan Succinate] | -1.47%
CC(C)Oc1ccc2c(=O)c(-c3ccccc3)coc2c1 | -2.56%
CC(=O)OCC(=O)[C@@]1(O)CC[C@H]2[C@@H]3CCC4=CC(=O)CC[C@]4(C)C3=CC[C@@]21C [anecortave] | -2.97%
CC(=O)OCC1=C(C(=O)O)N2C(=O)[C@@H](NC(=O)CC#N)[C@H]2SC1 [Celospor] | -1.45%
O=C(O)C1(C(=O)O)CCC1.[NH2-].[NH2-].[Pt+2] [Carboplatin] | 1.57%
O=C(O)C1(C(=O)O)CCC1.[NH2-].[NH2-].[Pt+2] | -0.789% and -6.77%
CCCCC1C(=O)N(c2ccccc2)N(c2ccc(O)cc2)C1=O (stereo not given) [oxyphenbutazone] | -5.93%
C[N+](C)(C)CCOC(N)=O [carbachol] | -1.3% and 4.44%
CC(C)S(=O)(=O)n1c(N)nc2ccc(/C(=N/O)c3ccccc3)cc21 [enviroxime] | -8.35%
CO/N=C(\C(=O)N[C@@H]1C(=O)N2C(C(=O)O)=C(COC(N)=O)CS[C@H]12)c1ccco1 | -2.82%
NC[C@H]1O[C@H](O[C@H]2[C@H](O)[C@@H](O[C@H]3O[C@H](CO)[C@@H](O)[C@H](N)[C@H]3O)[C@H](N)C[C@@H]2N)[C@H](O)[C@@H](O)[C@@H]1O | -1.69%
CCOc1ccc(S(=O)(=O)O)c2cccnc12 [actinoquinol] | -7.67%
CC/C=C\C/C=C\C/C=C\C/C=C\C/C=C\C/C=C\CCC(=O)O [doconexent] | -1.46%
O=C(O)Cn1c(C(=O)Nc2nc(-c3ccccc3Cl)cs2)cc2ccccc21 [lintitript] | -2.36%
CNCCCN1c2ccccc2CCc2ccccc21 [desipramine] | -6.95%

Looked up above:
O=C(O)C1(C(=O)O)CCC1.[NH2-].[NH2-].[Pt+2] | percent effect: -0.789% and -6.77%
CC(=O)OCC(=O)[C@@]1(O)CC[C@H]2[C@@H]3CCC4=CC(=O)CC[C@]4(C)C3=CC[C@@]21C [anecortave] | percent effect: -2.97%

Further results

SMILES | percent effect
CC(=O)OCC(=O)[C@@]1(O)[C@@H](C)C[C@H]2[C@@H]3CCC4=CC(=O)C=C[C@]4(C)[C@@]3(F)[C@@H](O)C[C@@]21C | -2.12%
CC/C=C\C/C=C\C/C=C\C/C=C\C/C=C\CCCC(=O)O [icosapent] | -2.27%
C[C@]12CC[C@H]3C(=CCc4cc(O)ccc43)[C@@H]1CCC2=O [Equilin] | -3.62%
CC(/C=C1\SC(=S)N(CC(=O)O)C1=O)=C\c1ccccc1 [epalrestat] | 0.295%
CCCN(CC)C(CC)C(=O)Nc1c(C)cccc1C (stereo not given) [Etidocaine] | -1.2%
CO/N=C(\C(=O)N[C@@H]1C(=O)N2C(C(=O)O)=C(CSc3nc(=O)c(O)nn3C)CS[C@H]12)c1csc(N)n1 [Rocephin] | -1.75%
CC[C@@H]1C(=O)N(C)c2cnc(Nc3ccc(C(=O)NC4CCN(C)CC4)cc3OC)nc2N1C1CCCC1 | -6.47%
O=C(Nc1ccccc1)c1ccccc1O | -4.58%
CN1C2CCCC1CC(NC(=O)c1nn(C)c3ccccc13)C2 (stereo not given) [granisetron] | 1.85%
CC(C)(C)NC(=O)N[C@H](C(=O)N1C[C@H]2[C@@H]([C@H]1C(=O)NC(CC1CCC1)C(=O)C(N)=O)C2(C)C)C(C)(C)C (stereo not given in full) [Boceprevir] | -7.91%
Nc1nc(O)c2ncn(CCC(CO)CO)c2n1 | 1.5%
CCCc1cc(=O)[nH]c(=S)[nH]1 [propylthiouracil] | 0.338%
C[C@]12CC[C@@H]3c4ccc(O)cc4CC[C@H]3[C@@H]1CC[C@@H]2OP(=O)(O)O [polyestradiol phosphate] | -1.57%
CC(=O)OC[C@H]1O[C@@H](n2ccc(=O)[nH]c2=O)[C@H](OC(C)=O)[C@@H]1OC(C)=O [Uridine triacetate] | -5.19%
CCCCN1C[C@H](O)[C@@H](O)[C@H](O)[C@H]1CO [miglustat] | -5.82%
CN1CCC[C@@H]1CCO[C@](C)(c1ccccc1)c1ccc(Cl)cc1 | -2.36%
NCCCC[C@H](N[C@@H](CCc1ccccc1)C(=O)O)C(=O)N1CCC[C@H]1C(=O)O [lisinopril] | -2.4%
